The whole screen tested about 320,000 compounds, of which about 620 (0.19%) were called active. Inconclusive means that the source gave no clear call. Such entries were picked first, then a sample of the others. Rule as the data show it: active = activation above about 80%; inconclusive = between about 30% and that limit; inactive = weaker than that.
molecular target: Transient receptor potential cation channel subfamily V member 1 (Homo sapiens) (UniProt Q8NER1); assay: HTS Assay for Compounds that Act as Agonists of the Vanilloid Receptor 1; details: TRPV1-expressing cells, Fluo-8 calcium influx, agonist mode; at 8.33 µM, active compounds read high; also: 0% is about no effect
Outline: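 TRPV1-expressing cells were cultured overnight at 35.5C and loaded with Fluo-8 calcium dye for 40 to 90 min at room temperature. After a 10 s baseline, compound was added and calcium influx was read kinetically for 3 min (ex 480/em 520 nm).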

By UniProt entry, the sequences of proteins in these tests, tags left out.
UniProt Q8NER1, whole entry, looked up: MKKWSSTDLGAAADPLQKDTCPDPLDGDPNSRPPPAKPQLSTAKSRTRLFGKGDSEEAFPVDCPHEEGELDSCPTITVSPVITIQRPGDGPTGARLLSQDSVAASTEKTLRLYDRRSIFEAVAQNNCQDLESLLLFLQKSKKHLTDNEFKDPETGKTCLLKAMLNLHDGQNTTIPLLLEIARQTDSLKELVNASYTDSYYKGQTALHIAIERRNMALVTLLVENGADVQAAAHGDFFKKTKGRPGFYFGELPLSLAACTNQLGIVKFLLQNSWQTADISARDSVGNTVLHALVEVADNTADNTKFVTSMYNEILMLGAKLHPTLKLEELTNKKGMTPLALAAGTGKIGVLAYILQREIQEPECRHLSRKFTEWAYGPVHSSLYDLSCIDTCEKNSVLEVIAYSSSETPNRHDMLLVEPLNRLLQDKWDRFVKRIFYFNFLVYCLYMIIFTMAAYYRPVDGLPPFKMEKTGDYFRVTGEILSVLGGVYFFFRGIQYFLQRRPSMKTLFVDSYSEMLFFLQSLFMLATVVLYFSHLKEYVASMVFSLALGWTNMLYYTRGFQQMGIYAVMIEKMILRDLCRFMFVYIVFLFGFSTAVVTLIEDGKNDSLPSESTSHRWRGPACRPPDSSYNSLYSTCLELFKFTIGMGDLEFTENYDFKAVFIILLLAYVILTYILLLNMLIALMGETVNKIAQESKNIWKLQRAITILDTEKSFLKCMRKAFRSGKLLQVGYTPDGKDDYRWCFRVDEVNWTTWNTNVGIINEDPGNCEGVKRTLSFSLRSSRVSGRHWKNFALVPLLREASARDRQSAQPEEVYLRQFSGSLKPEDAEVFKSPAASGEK

| Compound | activation |
| --- | --- |
| CCCCCOc1ccc(CSCCNC(=S)Nc2ccccc2)cc1 | inconclusive: 53.6% |
| O=c1[nH]c(SCc2nc3c(cnn3-c3ccccc3)c(=O)[nH]2)nc2ccccc12 | inactive: 3.12% |
| O=C(/C(C=Nc1cccc(C(F)(F)F)c1)=C(/O)c1ccco1)C(F)(F)F | inconclusive: 39.6% |
| Cc1cc(C)nc(NC(=NCCc2c[nH]c3ccccc23)NC(=O)Nc2ccc(Cl)c(Cl)c2)n1 | inactive: -5.35% |
| CC1=NN(C(=O)c2cccnc2)C(O)(C(F)(F)F)C1 (stereo not given) | inactive: -1.25% |
| CC(C)(C)c1ccc(CNC(=O)c2ccc3c(c2)NC(=O)CO3)cc1 | inconclusive: 41.1% |
| O=C(Cc1ccc(Cl)cc1)NCc1ccccc1Cl | inconclusive: 49.7% |
| COc1ccc(CCNC(=O)c2[nH]c(C)c(C(C)=O)c2C)cc1 | inconclusive: 35.3% |
| Cc1ccccc1OCC(O)CN1CCN(CC(O)COc2ccccc2C)C(C)C1 (stereo not given) | inactive: 2.86% |
| CC(=O)c1cccc(NC(=O)c2ccc3ccccc3c2)c1 | inconclusive: 74.3% |
| O=C(Nc1ccc2c(c1)CCC2)c1ccc(Br)o1 | inconclusive: 73.5% |
| Cc1cc(C(=O)Cn2cc(C(F)(F)F)ccc2=O)c(C)n1-c1ccccc1 | inactive: 15.2% |
| CC(=O)Nc1ccc2nc(-c3ccccc3)cn2c1 | inactive: 0.831% |
| O=C(c1ccco1)N1CCN(C(=O)C2CCCc3c2[nH]c2ccc(Cl)cc32)CC1 (stereo not given) | inconclusive: 32.3% |
| CCC(=O)N(CCc1ccccc1)Cc1cc2cc(C)ccc2[nH]c1=O | inconclusive: 63.5% |
| O=P(c1ccccc1)(c1ccccc1)c1nc(-c2ccccc2)oc1NCc1ccccc1 | inconclusive: 42.3% |
| COc1ccc(C(=O)c2cc3c(cc2[N+](=O)[O-])OCCO3)cc1 | inactive: 10.7% |
| COc1cccc(/C=C/C(=O)N2CCN(S(=O)(=O)c3ccccc3)CC2)c1OC | inconclusive: 31.6% |
| COc1cc(/C=C2\COC/C(=C\c3cc(OC)c(OC)c(OC)c3)C2=O)cc(OC)c1OC | inactive: 0.629% |
| CC1Cc2ccccc2N1C(=O)CSc1nnnn1Cc1ccccc1 (stereo not given) | inconclusive: 32.2% |
| COc1ccc(C(F)(F)F)cc1NC(=O)c1nc2nc(C)cc(C(F)F)n2n1 | inactive: 5.44% |
| CC(OC(=O)Cc1cccc(C(F)(F)F)c1)C(=O)Nc1ccc(Cl)cn1 (stereo not given) | inactive: 23.3% |
| Cc1ccccc1OCC(=O)NC(C)c1ccccc1 (stereo not given) | inconclusive: 39.3% |

| Compound | activation |
| --- | --- |
| CN(C(=S)NC(=O)c1ccccc1Br)C1CCCCC1 | inactive: 14.4% |
| O=C(N1CCCC1)C(F)(F)Oc1ccc(F)cc1 | inconclusive: 36.8% |
| Cc1[nH]n(-c2ccccc2)c(=O)c1/C=N/NC(=O)c1cccc(F)c1 | inconclusive: 47.3% |
| NC(=O)c1ccc(NC(=O)c2cccc(Oc3ccccc3)c2)cc1 | inconclusive: 45.3% |
| Cc1ccc(NC(=O)N2CCc3ccccc3C2)cc1C | inconclusive: 64.8% |
| CCCN1CCC(=O)N([C@H](CSc2ccc(C)cc2)c2ccccc2)CC1 | inactive: 15.4% |
| O=C(Nc1cccc(Br)c1)c1cccc(OC(=S)N2CCOCC2)c1 | inactive: 0.289% |
| CNc1nc(Nc2ccc(C)c(Cl)c2)c2cnn(C)c2n1 | inconclusive: 49.5% |
| CCC(=O)N1CCc2cc(Br)cc(S(=O)(=O)N3CCCC(C(=O)NC(C)(C)C)C3)c21 (stereo not given) | inactive: 15.3% |
| CCCCN(Cc1ccccc1)C1CCN(Cc2ccccc2)CC1 | inconclusive: 56.5% |
| O=C(Nc1ccc(C(F)(F)F)cc1)c1ccc2ncsc2c1 | active: 89.9% |
| O=C(Nc1ccc2c(c1)OCCO2)c1ccc(Cl)c(S(=O)(=O)N2CCOCC2)c1 | inconclusive: 55% |
| COCCCNC(=S)N1CCN(c2nc(C)nc3sc4c(c23)CCCC4)CC1 | inconclusive: 41.2% |
| COc1ccc2c3n([n+]([O-])c2c1)CCN=C3c1cc(Cl)c(N)c(Cl)c1 | inactive: -0.0852% |
| CCOC(=O)N1CCN(C(=O)COC(=O)C2CCN(S(=O)(=O)c3c(Cl)cccc3Cl)CC2)CC1 | inactive: 2.13% |
| CC(=O)OCC#CCSc1nc2ccccc2n1C | inactive: 2.98% |
| CCc1ccc(N2CC(C(=O)Nc3cc(C)on3)CC2=O)cc1 (stereo not given) | inconclusive: 33.9% |
| O=C(NCc1cccc(Cl)c1)c1cccc(C(F)(F)F)c1 | inconclusive: 39.7% |
| CC(OC(=O)c1ccc([N+](=O)[O-])o1)C(=O)Nc1nc(-c2ccc(F)c(F)c2)cs1 (stereo not given) | inactive: 5.76% |
| O=C(Nc1cccc(-c2csc(Nc3cccc(C(F)(F)F)c3)n2)c1)c1ccccc1 | inactive: -1.2% |
| CC(C)C(NC(=O)c1ccccc1)C(=O)NC1CCCc2ccccc21 (stereo not given) | inconclusive: 42.3% |
| CC(C)(C)c1ccc(C(=O)NC(=S)Nc2nc3c(s2)CCCC3)cc1 | inconclusive: 35.8% |
| CCN(CC)c1ccc2c(c1)OC(N)=C(C#N)C2c1cccnc1 (stereo not given) | inactive: 27.4% |

| Compound | activation |
| --- | --- |
| Cc1ccsc1/C=C/c1ccc2ccccc2n1 | inactive: -2.41% |
| Cc1ccc(Cn2ncn(-c3ccccc3)c2=O)cc1 | inconclusive: 43.7% |
| COCCN1C=C(C(=O)OC)C(c2cc(Br)c(OC)c(OC)c2)C(C(=O)OC)=C1 | inconclusive: 34.7% |
| C=Cc1ccc2c(c1)N(C)C(=C)S2 | inactive: -0.917% |
| Cc1ccc2cc3c(NC(=O)C4CCCO4)nn(CC(C)C)c3nc2c1 (stereo not given) | inconclusive: 76% |
| CCN(C(=O)CN1C(=O)S/C(=C\c2ccccc2OC)C1=O)C1CCS(=O)(=O)C1 (stereo not given) | inactive: 2.47% |
| COc1ccc(CC(=O)N/N=C/c2ccc(-c3ccc(F)cc3)o2)cc1OC | inconclusive: 52% |
| Cn1cc(CN2CCCC(C(=O)c3ccc(-c4ccccc4)cc3)C2)cn1 (stereo not given) | inconclusive: 36.7% |
| COc1ccc(C(=O)NNC(=O)c2ccc3ccccc3n2)cc1 | inconclusive: 45.1% |
| Cc1c(OCC(=O)NCc2ccncc2)ccc2c3c(c(=O)oc12)CCC3 | inconclusive: 77.1% |
| O=C(NNC1=Nc2ccccc2SC1)c1ccc(Cl)cc1 | inconclusive: 40.1% |
| CCCCNc1c(-c2ccc(OC)c(SC3CCCCC3)c2)nc2cnccn12 | inconclusive: 72.3% |
| CCOC(=O)C1=CN(CC2CCCO2)C=C(C(=O)OCC)C1c1ccccc1C(F)(F)F (stereo not given) | inconclusive: 61.9% |
| COC(=O)c1ccc(NC(=O)CCc2c(C)nc3ncnn3c2C)cc1 | inactive: -2.59% |
| COc1ccc(C(=O)Cn2cnc3ccccc3c2=O)c(OC)c1 | inactive: 0.0712% |
| Cc1ccc(CN(C)C(=O)c2ccc(S(=O)(=O)N3CCCCCC3)cc2)o1 | inconclusive: 32.2% |
| COc1ccc(CCNC(=O)CSCc2ccc([N+](=O)[O-])cc2)cc1OC | inactive: -2.28% |
| COC(=O)c1ccc(NC(=O)c2cccc(N3C(=O)C4C5C=CC(C6CC56)C4C3=O)c2)cc1 (stereo not given) | inconclusive: 31.5% |
| Cc1csc(NC(=O)c2cc(-c3ccco3)nc3ccccc23)n1 | inactive: -8.98% |
| O=C(Nc1cccc(F)c1)NC1CC2CCCC(C1)N2C1CC1 (stereo not given) | inactive: -0.641% |
| C/C=C/c1ccc(OCCSc2nc(C)cc(=O)[nH]2)c(OC)c1 | inconclusive: 59.1% |
| Cc1cc(Nc2cccc(F)c2)nc(NCc2ccccc2)n1 | inconclusive: 48.7% |
| COc1ccc(CNC(=O)c2cc(-c3ccccc3OC)on2)cc1 | inconclusive: 41.6% |

| Compound | activation |
| --- | --- |
| O=C(CSc1nnc(-c2ccccc2Cl)o1)N1CCCCC1 | inconclusive: 45.9% |
| Cn1nnc2cc(C(=O)NCCC3=CCCCC3)ccc21 | inconclusive: 55.5% |
| CCN1C(=O)/C(=C/c2cc(C)n(C)c2C)SC1=Nc1ccc(OC)cc1 | inconclusive: 38.6% |
| Cc1nc(-c2ccc(C(=O)Nc3cccc(F)c3)cc2)cs1 | inconclusive: 64.6% |
| O=C(NCc1ccco1)c1cc(-c2ccccc2)c(N2CCOCC2)s1 | inconclusive: 41.5% |
| O=C(COC(=O)c1ccc(-n2cnnn2)cc1)c1ccc(Br)cc1 | inactive: -6.6% |
| Fc1ccccc1/C=N/Nc1ncnc2ccccc12 | inconclusive: 50% |
| CCCCCC(=O)Nc1ccc(C(=O)CN2C(=O)NC3(CCCCCC3)C2=O)cc1 | inactive: 3.48% |
| Cc1csc(NC(=O)c2nc(-c3ccccc3)n(-c3ccccc3)n2)n1 | inconclusive: 44.2% |
| O=C(NC(=S)NCCc1ccccc1)c1ccccc1F | inconclusive: 43.5% |
| O=C(Nc1ccc(F)c(Cl)c1)C1CCN(S(=O)(=O)c2cccnc2)CC1 | inconclusive: 30.7% |
| CCOC(=O)c1ccc(NC(=O)c2nc[nH]c2C(=O)N[C@@H](CC(C)C)C(=O)OC(C)(C)C)cc1 | inactive: 8.34% |
| CCc1ccc(S(=O)(=O)/N=C2\C=C(Nc3ccc(O)cc3)C(=O)c3ccccc32)cc1 | inconclusive: 58.4% |
| COc1cc(/C=N/NC(=O)c2cc3c(ccc4ccccc43)o2)cc(OC)c1O | inconclusive: 68% |
| CCCn1cc(S(=O)(=O)c2ccc(F)cc2)c(=O)c2cc(OCC)ccc21 | inconclusive: 50.4% |
| O=C(Nc1ccc(F)cc1)c1oc2ccccc2c1NC(=O)C1CC1 | active: 81.5% |
| Cc1nn(Cc2ccccc2)c2sc(C(=O)NCc3cccnc3)cc12 | inconclusive: 49.9% |
| CCc1ccc(CNC(=O)c2ccc(OC3CCN(C(C)=O)CC3)c(OC)c2)nc1 | inactive: -1.86% |
| CC(C)c1ccc(NC(=O)CCCC(=O)NCCc2ccccc2)cc1 | inconclusive: 31.1% |
| CCC(C)Sc1cc(C)c(C#N)c2nc3ccccc3n12 (stereo not given) | inconclusive: 50.7% |
| CCCOc1ccc(-c2c(C(=O)N/N=C/c3ccncc3)nnn2-c2nonc2N)cc1 | inconclusive: 52.6% |

Gathered by group, those above containing a tert-butyl group.

| Compound | activation |
| --- | --- |
| CC(C)(C)c1ccc(CNC(=O)c2ccc3c(c2)NC(=O)CO3)cc1 | inconclusive: 41.1% |
| CCC(=O)N1CCc2cc(Br)cc(S(=O)(=O)N3CCCC(C(=O)NC(C)(C)C)C3)c21 (stereo not given) | inactive: 15.3% |
| CC(C)(C)c1ccc(C(=O)NC(=S)Nc2nc3c(s2)CCCC3)cc1 | inconclusive: 35.8% |
| CCOC(=O)c1ccc(NC(=O)c2nc[nH]c2C(=O)N[C@@H](CC(C)C)C(=O)OC(C)(C)C)cc1 | inactive: 8.34% |

— PubChem BioAssay AID540275 (National Center for Advancing Translational Sciences (NCATS), 2011)
